# Reference: PubChem BioAssay AID2685 (National Center for Advancing Translational Sciences (NCATS), 2010)
# The list shows a part of the results. These are further read-outs of the screen, such as a control signal, another cell line or another target. No call is given for them. Compounds called inactive in the main read-out are mostly missing here. Potencies come from curve fits of mixed quality, noted in brackets.
# Assay: qHTS Assay for Lipid Storage Modulators in Drosophila S3 Cells;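 on cell number change: cells counted by Cell Tracker Red CMTPX staining in the red channel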
# Settings: BODIPY lipid droplet fluorescence, 18-24 h; for cell number change: measured here: cell count max response, cells fed with added oleic acid
# Procedure, shortened: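 Laser-scanning cytometry quantifies lipid droplet accumulation (500–530 nm total intensity; droplet/cell object ratio) in oleic acid-fed (400 uM added) Drosophila S3 cells treated with a concentration series. 20 uM Triacsin C defined 100% inhibition.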
# [1] = measured here: lipid fluorescence (Fed channel) AC50, cells fed with added oleic acid
# [2] = measured here: cell number channel AC50, cells fed with added oleic acid
SMILES,cell number change,AC50 [1],AC50 [2]
CN(C(=O)CSc1nnc(-c2cccs2)n1C1CC1)C1CCS(=O)(=O)C1 (centres undefined),-5.87%,"16.4 µM [rising, single point]",–
Cn1cc(S(=O)(=O)N2CCCC(C(=O)O)C2)cn1 (centres undefined),-33.6%,–,"18.4 µM [falling, single point]"
COC(=O)c1c(N2C(=O)CC(Sc3ncccc3C(=O)O)C2=O)sc(C)c1C (centres undefined),24.5%,"7.31 µM [rising, partial curve]",–
Cc1ccc(C(=O)N2CCN(S(=O)(=O)c3cc(Br)ccc3Br)CC2)o1,14.1%,"1.84 µM [falling, full curve]",–
O=C(C1CCCN(S(=O)(=O)c2cccc3nsnc23)C1)N1CCCCCC1 (centres undefined),4.81%,"0.82 µM [falling, single point]","0.82 µM [falling, single point]"
Cc1ccc(OCC(=O)Nc2ccc(N3CCCC3)cc2)cc1C,-18.4%,–,–
CC(=O)NC(NC(=S)Nc1ccc(C)cc1C)C(Cl)(Cl)Cl (centres undefined),9.92%,"0.731 µM [falling, full curve]",–
O=C(Nc1cccc(Cl)c1)c1nc[nH]c1C(=O)NCc1ccccc1,-33.4%,–,"29.1 µM [falling, single point]"
Cc1cc2cc3c(cc2nc1SCC(=O)Nc1ccccc1)CCC3,19.3%,"29.1 µM [rising, single point]",–
CC(C)OC(=O)C1C(=O)CC(C)(O)C(C(=O)OC(C)C)C1c1cccc(O)c1 (centres undefined),-18.4%,"23.1 µM [falling, single point]",–
Cc1cc(N/N=C/c2ccccc2)nc(N)n1,-0.427%,"1.16 µM [rising, partial curve]",–
C/C(=N\NC(=O)CCc1ccccc1)C1C(=O)c2ccccc2C1=O,-18.1%,"0.259 µM [falling, full curve]",–
Cc1ccc(C)c(N2CC(O)(c3cccs3)[N+]3=C2CCCC3)c1 (centres undefined),-15%,"0.651 µM [falling, full curve]","0.00731 µM [falling, full curve, poor fit]"
COc1ccc(NC(=O)CSc2nnc(Cn3cnc4ccccc43)o2)cc1,–,"0.731 µM [falling, partial curve, poor fit]","0.651 µM [falling, single point]"
CCCNc1c(NS(=O)(=O)c2ccc(C)c(C)c2)c(=O)oc2ccccc12,–,"0.231 µM [falling, full curve, poor fit]",–
Fc1ccc(Cn2nnnc2CN2CCc3ccccc3C2)cc1,15%,–,–

SMILES,cell number change,AC50 [1],AC50 [2]
Cc1ccc(NC(=O)c2cccc(Oc3ccc([N+](=O)[O-])cc3)c2)c(C(=O)O)c1,1.57%,"10.3 µM [rising, partial curve]",–
Cc1ccc(C(c2c(C)[nH][nH]c2=O)c2c(C)[nH][nH]c2=O)cc1,30.3%,–,–
COc1cc(-c2nnc(CSc3nnc4nc(C)cc(C)n34)o2)cc(OC)c1OC,41.5%,"13 µM [rising, partial curve]","9.2 µM [rising, partial curve]"
CC(NC(=O)COC(=O)CSc1ccc(F)cc1)c1ccc(F)cc1 (centres undefined),-8.55%,–,–
CCc1ccc(N2C(=O)Cc3c2nc(N)c(C#N)c3N)cc1,14.1%,"0.0651 µM [rising, full curve, poor fit]","0.092 µM [rising, full curve]"
CCCOc1ccc(C(=O)c2ccccc2C(=O)OC2CCOC2=O)cc1OCCC (centres undefined),-4.95%,"1.03 µM [rising, partial curve]",–
Cc1ccc(S(=O)(=O)NCC(=O)N(CC2CCCO2)C(C(=O)NC2CCCCC2)C(C)C)cc1 (centres undefined),1.32%,–,–
COc1ccccc1Nc1cc(C(=O)NCc2cccnc2)c2ccccc2n1,6.97%,–,–
C/C(CCc1ccccc1)=N\NC(=O)c1ccccc1[N+](=O)[O-],–,"0.411 µM [falling, partial curve, poor fit]","0.731 µM [falling, single point]"
CC(=O)Nc1ccc(NS(=O)(=O)c2ccc(Cl)c(C(=O)O)c2)cc1,-12.9%,"32.6 µM [falling, single point]",–
Cc1ccc(-n2c(-c3nn(C)c(C)c3Cl)n[nH]c2=S)cc1,78.6%,"0.0517 µM [falling, single point]","9.2 µM [rising, partial curve]"
Cc1cc(-c2nn(C)c(=O)c3ccccc23)cc(C)c1O,-2.17%,–,–
NC(=O)c1nsc(C(=O)N(c2ccccc2)C(C(=O)NC2CCCCC2)c2ccc(O)cc2)c1N (centres undefined),-5.56%,–,–
COc1ccc(C(=O)Nc2ccc(N3CCN(Cc4ccccc4)CC3)cc2)cc1,-45.4%,–,"18.4 µM [falling, single point]"
C=CCn1c(SCC(=O)N2CCc3ccccc3C2)nc2sc(C)c(C)c2c1=O,54.9%,"3.26 µM [rising, single point]","29.1 µM [rising, single point]"

# Only cell number change and AC50 [2], for 2 of the compounds above:
SMILES,cell number change,AC50 [2]
NC(=O)c1nsc(C(=O)N(c2ccccc2)C(C(=O)NC2CCCCC2)c2ccc(O)cc2)c1N (centres undefined),-5.56%,–
COc1ccc(C(=O)Nc2ccc(N3CCN(Cc4ccccc4)CC3)cc2)cc1,-45.4%,"18.4 µM [falling, single point]"
